Library screen at single concentrations

Amino acid sequences for entries named in this document (tags omitted). Residues count along the entry.
UniProt Q4DA54, 1-478: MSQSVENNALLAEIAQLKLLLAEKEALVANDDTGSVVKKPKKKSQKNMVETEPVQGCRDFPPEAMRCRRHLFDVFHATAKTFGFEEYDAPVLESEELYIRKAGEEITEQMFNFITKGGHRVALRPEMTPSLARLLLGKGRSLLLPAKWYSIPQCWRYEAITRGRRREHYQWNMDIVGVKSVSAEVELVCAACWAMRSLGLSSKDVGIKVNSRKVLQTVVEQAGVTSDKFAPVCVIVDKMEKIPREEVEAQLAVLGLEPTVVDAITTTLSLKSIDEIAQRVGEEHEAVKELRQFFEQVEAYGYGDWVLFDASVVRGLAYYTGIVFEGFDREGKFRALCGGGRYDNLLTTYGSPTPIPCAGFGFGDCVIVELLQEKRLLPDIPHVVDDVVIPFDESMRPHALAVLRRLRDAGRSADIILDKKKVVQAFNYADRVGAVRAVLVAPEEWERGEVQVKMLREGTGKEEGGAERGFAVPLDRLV
UniProt P9WNZ1, whole entry: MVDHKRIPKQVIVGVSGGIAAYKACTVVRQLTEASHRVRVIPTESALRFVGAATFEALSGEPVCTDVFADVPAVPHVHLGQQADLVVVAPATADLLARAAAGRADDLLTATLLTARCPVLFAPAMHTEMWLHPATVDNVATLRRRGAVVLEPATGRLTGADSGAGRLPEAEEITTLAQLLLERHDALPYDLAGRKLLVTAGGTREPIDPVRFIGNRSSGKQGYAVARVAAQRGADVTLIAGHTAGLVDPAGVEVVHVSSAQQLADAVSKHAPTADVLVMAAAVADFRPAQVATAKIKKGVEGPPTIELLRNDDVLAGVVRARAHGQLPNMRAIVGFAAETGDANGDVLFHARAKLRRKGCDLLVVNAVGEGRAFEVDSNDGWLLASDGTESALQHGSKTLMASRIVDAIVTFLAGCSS

Measurements from “University of Dundee, Small-Polar-MMV Screening Library” (2021), ChEMBL document CHEMBL3988442.

Values are the deposited “Percent Effect”, in %. The record does not define 0% and 100%; most values in the screen are far below 50% and negative numbers occur (in some assays of this library far below -100). The compounds are a random part of those screened. A dash means the value is not listed here; it may have been measured.

Toxoplasma: 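Assay of Toxoplasma gondii numbers, read through their beta-galactosidase reporter with a colour substrate. Compounds at 10 µM. The record gives no direction; the compounds picked for IC50 retests had high values, so higher reads as fewer parasites. Of about 67,000 compounds tested this way, about 260 (0.38%) reached 50% or more in at least one test.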
TcHisRS: 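Histidine-tRNA ligase, Trypanosoma cruzi CL Brener (UniProt Q4DA54). Enzyme assay of histidyl-tRNA synthetase; the read-out is not stated. Tested at 30 µM. Higher reads as stronger inhibition (inferred: compounds with an IC50 in retests scored well above the rest). Of about 69,000 compounds tested this way, about 31 (0.045%) reached 50% or more in at least one test.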
CoaBC: 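Coenzyme A biosynthesis protein CoaBC, Mycobacterium tuberculosis (UniProt P9WNZ1). Enzyme assay of CoaBC with a phosphate dye (Biomol Green) read at 650 nm. Tested at 30 µM. Direction is inferred from only a few compounds that gave an IC50; most scored high, so higher reads as stronger inhibition. Most strong results did not repeat in a second test. Size under these conditions: about 67,000 compounds, about 40 of them at 50% or above in at least one test.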
Leishmania in macrophages: 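Cell assay of Leishmania donovani living inside macrophages; the read-out is not stated. Concentration: 30 µM. The record gives no direction; compounds that gave an IC50 in retests scored well above the rest, so higher reads as stronger inhibition. Size under these conditions: about 69,000 compounds, about 1,000 of them at 50% or above in at least one test.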

structure	Toxoplasma	TcHisRS	CoaBC	Leishmania in macrophages
COCCN1CCC(NCc2cc(F)ccc2F)C1 (stereo not drawn)	7.086	3.429	3.345	4.984
Cc1cc(CN(C)C(=O)NC2CCCN(c3ncccn3)C2)no1 (stereo not drawn)	-6.493	2.662	-3.191	11.19
Cc1ncc(CN(C)CC(O)c2ccc(OC(F)(F)F)cc2)s1 (stereo not drawn)	6.723	9.184	4.536	13.51
CCc1csc(C2CCCN(C(=O)c3cnn(CC)c3)C2)n1 (stereo not drawn)	1.659	7.609	3.104	2.945
OC1(CN2CCCCC2)CCN(c2ccc(C(F)(F)F)cn2)C1 (stereo not drawn)	-8.824	12.44	-0.2469	41.84
CN1CCCCc2c1nc1c(c2N)CCC1.O=C(O)c1cc([N+](=O)[O-])ccc1Cl	14.34	1.031	-8.962	34.99
Cc1nnc(N2CC[C@H](OCC3CC3)[C@@H](Cc3ccccc3)C2)s1	-	15.68	3.173	-
O=C(Nc1cc(C2CCOCC2)[nH]n1)c1ccc(Cl)cn1	-2.526	8.995	-3.666	-4.841
CCC(C(=O)NC(C)(C)C)n1ccc2ncccc2c1=O (stereo not drawn)	7.872	3.879	5.196	32.8
CN(Cc1ccnc2ccccc12)C1CCS(=O)(=O)C1 (stereo not drawn)	-	9.398	-5.828	-
Cc1nn(C)c(C)c1-c1ccnc(N2CCCN(CC(C)C)CC2)n1	16.7	12.12	7.071	27.84
CC[C@@H]1N(Cc2ccncc2)CCC[C@]12CCC(=O)N2C	-	6.25	16.47	-
CC(C)c1nc(CNC(C(=O)N2CCOCC2)C(C)C)no1 (stereo not drawn)	-0.7042	7.778	5.882	1.133
c1cc(CN2CCCCC2)cc(NCc2cc[nH]n2)c1	-42.74	4.202	-3.226	13.4
COc1ccc(CNC(C)c2ccccc2Cl)c(OC)c1OC (stereo not drawn)	-	0	-19.42	-
O=C(c1cccs1)N1CCN(C(=O)c2ncoc2-c2ccco2)CC1	-0.2401	2.521	7.258	19.14
O=C(Cc1ccccc1)NCCNC(=O)c1scnc1Cl	10.6	3.955	2.872	2.232
O=C(CC1CC1)N1CCC2(CC1)CN(c1cccnc1)C(=O)CO2	-	6.349	0.2469	-
CC(NC1(CNS(C)(=O)=O)CCCC1)c1ccccc1 (stereo not drawn)	-6.25	2.941	3.089	14.76
CCOC(=O)[C@H]1[C@@H](O)C(=O)N(C)C12CCN(C(=O)C(CC)CC)CC2	-7.511	4.624	-0.1227	-1.106
O=C(O)C(F)(F)F.[H][C@@]12OCCC[C@]1([H])N(C(=O)COC)C[C@H]2OCc1ccncc1	64.14	-	-	-12.55
CC(=O)N1CCC(NC(=O)N(C)Cc2c(C)noc2C)CC1	2.269	5.572	8.158	20.51
O=C(O)c1ccccc1-n1cnc(CN2CCCc3ccccc32)c1	-7.958	8.527	-4.785	27.16
Cc1ncc(CNCC2CCC(C(N)=O)CC2)n1-c1ccccc1 (stereo not drawn)	0.6965	7.263	0	2.342
Cc1ccc(C(=O)N2CCC3(CC2)CC(c2cnn(C)c2)CO3)cn1 (stereo not drawn)	-	12.75	2	-
CC(NC(=O)Nc1cccnc1N1CCOCC1)c1ccccc1 (stereo not drawn)	5.869	5.882	0.319	19.76
CN(CC(=O)N1CCC(Oc2ccc(C(F)(F)F)cn2)CC1)S(C)(=O)=O	0.5859	7	3.557	8.777
CCC(C(=O)NC)N(c1cccc(C)c1)S(C)(=O)=O (stereo not drawn)	-2.863	0.4149	1.339	4.001
Cc1nc(CN2CC3(CCN(c4ncccn4)C3)CC2=O)cs1 (stereo not drawn)	-	2.439	6.516	-
CCN(CC)S(=O)(=O)NCc1ccc(-c2ccc(C(N)=O)c(C)n2)cc1	-3.155	5.747	-5.583	21.92
NC(=O)N1CCCC1COC(=O)c1ccc(F)cc1Br (stereo not drawn)	3.797	5.172	3.733	7.199
O=C(O)C(F)(F)F.[H][C@]12CN(c3ncc(C)cn3)C[C@@]1(C(=O)O)CCCN(C1CCOC1)C2 (stereo partly drawn)	2.084	-	-	51.36
[H][C@@]12CN(C(C)C)C[C@]1([H])N(Cc1ccccc1OC)C(=O)O2	2.679	-	-	14.11
COc1ccc(Cl)cc1-c1nc(N)nc(N)n1	13.93	5.155	2.237	5.216
COc1ccc(C(=O)NCCN2CCC(c3cccs3)CC2)cc1OC	-5.19	10.55	4.212	-24.99
Cc1nnc(-c2cccc(N3CCC(NC(C)CC(C)C)CC3)c2)s1 (stereo not drawn)	8.659	1.205	3.465	20.77
Cn1ccnc1CN1CCN(CC(O)c2cc(F)ccc2F)CC1 (stereo not drawn)	8.424	1.458	0.7833	13.5
Cn1nc(COCC2CC2)c2c1CCN(Cc1ccco1)C2.O=C(O)C(F)(F)F	-10.65	-	-	5.182
c1cc(CN2CCN(Cc3cscn3)CC2)cs1	-4.076	2.642	5.385	-11.87
COc1cccc(C(=O)N2C[C@H]3CC[C@@H]2CN(Cc2cscn2)C3)c1	-	2.424	1.022	-
Cc1cc(CNc2cc(Cl)ccc2C)no1	4.93	3.812	1.053	8.812
Cc1noc(C)c1CS(=O)(=O)CC(=O)NCCc1cccs1	1.947	5.051	-3.241	-18.19
O=C(Nc1ccccc1)N1C[C@H]2C[C@H](C(=O)N3CCCC3)[C@@H](C1)O2	-	-1.676	-1.333	-
CC(C)n1cnnc1CN(C)C1CCCNC1 (stereo not drawn)	0.3425	7.895	-	24.15
CN(Cc1ccncc1)C1COC2(CCN(Cc3ccsc3)CC2)C1 (stereo not drawn)	-	5.785	2.941	-
Cc1ccc(C(=O)N2C[C@H]3CCCC(OCc4cccnc4)[C@H]3C2)cn1 (stereo partly drawn)	-	7.843	1.303	-
CCC1C(=O)NCCN1c1ccnc(C(C)(C)C)n1 (stereo not drawn)	-16.13	0	2.911	-23.65
COCCNC(=O)CSCc1nc(O)c2cc(C(C)C)sc2n1	-5.166	1.136	-2.784	12.38
CS(=O)(=O)NCC1(c2ccccc2Br)CC1	0.5823	5.952	0.9804	-0.01271
COc1cccc(S(=O)(=O)NC(=O)c2c(C)noc2C(C)C)c1	1.235	4.167	9.474	-10.83
Cc1nn(C)cc1S(=O)(=O)N(CCc1ccccc1)Cc1ccn(C)n1	5.724	0.8696	-2.54	41.38
Cc1nc(C)n(C2CCCN(C(=O)CCCOc3ccccc3)C2)n1 (stereo not drawn)	0.2118	2.29	-1.446	8.321
COCCN1CCc2c(cnc(-c3ccoc3)c2C(=O)O)C1.O=C(O)C(F)(F)F	4.935	-	-	21.01
C[C@@H]1CN(C(=O)c2cccn2C)C[C@]12CCN(c1ccsc1)C2=O	-6.495	-0.9804	4.25	11.12
CN(C)C(=O)[C@@H]1CCO[C@@H]2CCN(c3ncccn3)C[C@@H]21	-	5.473	-1.29	-
CCOCCC(=O)N1CCCC(CO)(CC2CC2)C1 (stereo not drawn)	2.011	-1.026	4.133	11.97
CC(C)(C)OC(=O)NC(C)(C(N)=O)c1cccc(Cl)c1 (stereo not drawn)	10.03	-1.98	1.942	-4.922
CN1CCCC1CNC(=O)CCCOc1ccc(I)cc1 (stereo not drawn)	-8.153	11.83	6.21	13.71
CC(NCCn1cccn1)c1ccc(F)cc1F (stereo not drawn)	-15.82	5.155	8.571	27.68
[H][C@@]12CN(c3ccccn3)C[C@]1([H])OCCN2CC(=O)N(C)C	3.527	-	-	-3.376
O=C(C1CC=CC1)N1CCC2(CC1)CN(Cc1ccccn1)CCO2	3.118	-2.732	-2.445	8.494
CCn1c(CN(C)Cc2csc(C)n2)nc2cc(F)ccc21	-17.85	2.924	1.768	21.18
O=C(c1occc1CN1C(=O)Cc2ccccc21)N1CCCCCC1	0.07092	2.155	0.8872	31.83
COc1ccc(C(=O)N2CCOCC(CO)C2)cc1N1CCOCC1 (stereo not drawn)	-7.477	12.14	0.7444	-12.22
CC(C)N1CCCC(C(=O)N(C)CCCc2cnn(C)c2)C1 (stereo not drawn)	-1.641	4.762	2.941	4.563
N#CC(NC(=O)CCC(=O)NC1CCCC1)c1ccc(F)cc1F (stereo not drawn)	-0.4428	3.093	0.2445	-11.51
Cc1sc2nc(SC(C)c3nc(C(C)C)no3)nc(N)c2c1C (stereo not drawn)	-5.347	14.29	-1.716	10.87
CC(=O)NCc1nnc2n1CCN(c1ncnc3c1CCC3)CC2	-4.648	1.935	-1.449	-6.409

4 of the entries, repeated:

| structure | Toxoplasma | TcHisRS | CoaBC | Leishmania in macrophages |
|---|---|---|---|---|
| `Cc1ncc(CNCC2CCC(C(N)=O)CC2)n1-c1ccccc1` (stereo not drawn) | 0.6965 | 7.263 | 0 | 2.342 |
| `COc1ccc(CNC(C)c2ccccc2Cl)c(OC)c1OC` (stereo not drawn) | - | 0 | -19.42 | - |
| `COc1cccc(S(=O)(=O)NC(=O)c2c(C)noc2C(C)C)c1` | 1.235 | 4.167 | 9.474 | -10.83 |
| `O=C(c1cccs1)N1CCN(C(=O)c2ncoc2-c2ccco2)CC1` | -0.2401 | 2.521 | 7.258 | 19.14 |